# From PubChem BioAssay AID1347423 (Functional Genomics Laboratory (NCATS/FGL), 2020)
# Out of some 52,000 sequences screened, about 210 (0.4%) were called active.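 The calls were made as follows: active = gene whose silencing raises cell survival under the drug, median off-target-corrected z-score across its silencing RNAs 2 or more; inactive = the rest.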 This is one part of the list.
# Assay: Resistance to Poly (ADP-Ribose) Polymerase inhibitor: Gene Identification via Genome-wide siRNA Screen
# Details: mouse BRCA2 R2336H ES cells, olaparib, CellTiter-Glo viability; stronger effect = higher value
# Method in brief: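 Mouse BRCA2 R2336H ES cells were reverse-transfected with siRNA (20 nM final), treated at 48 h with 500 nM olaparib, and read by CellTiter-Glo after 72 h. Scores: MAD-based z per siRNA, median per gene, seed off-target correction.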
row,Sequence,z-score
1,GGAAAAUUACAGAAUUGGATT against Dnali1,inactive: 1.21
2,GGACAUGGACAUCCUGAACTT against Slc29a3,inactive: 0.142
3,GGUGCCUCAGAGUAAAUAUTT against Cdk2ap1,inactive: -2.74
4,GGCAAACACUACGGCAUCATT against Mrpl27,inactive: 0.668
5,GUAUUUUACACUCUUGUGGTT against Olfr898,inactive: -0.721
6,GCUAUGCUUUUUUGCUACUTT against Olfr972,inactive: -0.496
7,CCCAGCUCACACAAACUCATT against LOC434377,inactive: -0.485
8,CCAGCAGCCUAAAAGCAGUTT against Ppard,inactive: 0.798
9,GGGACCAUCUUCCUGAUUGTT against Cdh22,inactive: -0.202
10,GCUAGAAUUCAUGUUUCGUTT against Dgkg,inactive: 1.3
11,CGAGAACCAUAUCUCACUUTT against Ptpn2,inactive: 0.575
12,GCUGGUACGCCCACCAUAUTT against Foxi1,inactive: 0.18
13,GGAGAAUCUGGACAAUGACTT against Dvl3,inactive: -1.69
14,GCCAACAGUACUUUGUUAATT against Chordc1,inactive: -0.278
15,GGCCGCUUUUAUUUAUAAUTT against 4732460C16Rik,inactive: 0.984
16,GGUUUUCUGGUCCAUUAUATT against Olfr741,inactive: 2.4
17,GGAGGCUGAGUAUUGGCUUTT against Pi4k2b,inactive: 0.48
18,CGAUACACUGGUGCCCUAUTT against AV028368,inactive: -1.73
19,GGUCCAGAAUCAGAGGAGUTT against Trim10,inactive: -0.127
20,GCCAAAUUUGUCAUCCACUTT against H2afy3,inactive: 0.296
21,GGCCUUGAUUCAAUUCAACTT against Tgm6,inactive: -0.154
22,GGCUUGUGGUCAUCUCAUGTT against Olfr282,inactive: 0.742
23,GGAUGCACUCAAGAAUUACTT against 4933417K04Rik,inactive: 0.401
24,GGCCUUAUAACUCAUAUAUTT against 2210010B09Rik,inactive: 0.328
25,GGAGAAAAUCAAGGUGUUATT against Cutl2,inactive: 0.575
26,GCUCAUGAGUAGCUUAGUUTT against Mtch2,inactive: -0.36

row,Sequence,z-score
1,GGCCUGCCUGAAAAAAAAATT against Map1lc3a,inactive: 0.202
2,GGCAUCAUCUCAGUCAUGUTT against 2410015M20Rik,inactive: -2.2
3,GCUCAUCUGUGAAUACAAUTT against 5730410I19Rik,inactive: -0.568
4,GGCCUACAGGACAAAGUUUTT against Comt,inactive: -0.624
5,GGAUUGAAAGCUACUCGUGTT against Maf1,inactive: -0.911
6,GGGUCUCUGGCUUCAUUUUTT against Socs1,inactive: 0.00862
7,GGAGAAGGGCUUUUCUGUUTT against Gbp5,inactive: -0.875
8,GCAGAGAGAUACAUUAAAGTT against Adam10,inactive: 0.478
9,GGCAUUUAUUAUCAGGCUGTT against Pes1,inactive: -1.46
10,GGGAAGCCUUUCUUGUCAGTT against V1rb7,inactive: -0.659
11,GCAAAAAACAGGGUAACUCTT against Cacna1d,inactive: -0.338
12,GGUUCAUGUGUGCACAGCUTT against Ehd1,inactive: 0.627
13,GCUAUGACUCCAACAUGCGTT against Gm638,inactive: 1.49
14,GCUCAACAGAUCAUGCCACTT against Tapbpl,inactive: 0.3
15,GCUCAUUCUUACCAAUCUCTT against 2210413P10Rik,inactive: -0.897
16,GGAACUUCACAGGAACUCUTT against Nol4,inactive: -0.104
17,CGUGCCCAAGAAUGCCCUUTT against Actr5,inactive: 0.294
18,CCUACAGAGUACCCUGUCUTT against LOC237891,inactive: -0.766
19,GGCAGUGAAUUCAACCGCATT against Gtf2f1,inactive: -1.46
20,GGCAGAUCGAAGAGAACAATT against Prlpc2,inactive: -1.33
21,GGCUUUGAGCAUGUUUUCATT against Hspb7,inactive: -0.569
22,GAACCCAGAUCUGCACAACTT against Sox17,inactive: -1.07
23,CCUAUUGAAUUGACCCUAATT against Muc20,inactive: -1.8
24,CGAGGUUGAAGAUCUCUAUTT against 5730421E18Rik,inactive: 1.2
25,CGACUACCACACGUGGAAUTT against 0610039P13Rik,inactive: 0.691
26,CCAGUCAUCAUGCUACACGTT against Slc19a3,inactive: 0.651

# Exported tab-delimited: entries from further up
row	Sequence	z-score
18	CCUACAGAGUACCCUGUCUTT against LOC237891	inactive: -0.766
19	GGCAGUGAAUUCAACCGCATT against Gtf2f1	inactive: -1.46

# Single values from the entries so far.
# z-score with GCUCAUUCUUACCAAUCUCTT against 2210413P10Rik reads inactive: -0.897
# z-score with GGCCUGCCUGAAAAAAAAATT against Map1lc3a reads inactive: 0.202
